Where a sequence shows no end group, the ends are not given.
Assay: general procedure: Fmoc solid-phase peptide synthesis; Wang resin (substitution about 0.8 mmole/g), Novabiochem; HBTU/DIEA
Settings: for crude mass: scale 0.22 mmole
[1] = whole synthesis, Method A, 220 nm, scale of the general procedure approximately 0.22 mmole (0.4 g Fmoc-AA-Wang resin)
[2] = whole synthesis, analytical HPLC with UV detection (Method A; Method B at 260 nm), scale of the general procedure approximately 0.22 mmole (0.4 g Fmoc-AA-Wang resin)
[3] = conjugation step, Method B, 260 nm

Row | Substance | crude HPLC purity [1] | final HPLC purity [2] | crude mass (whole synthesis) | final HPLC purity [3] | final HPLC purity (conjugation step, Method B, diphenyl column) | crude HPLC purity [2]
1 | AKXVAAWTLKAAAILKEPVHGV | about 40% purity | ≥85% | Approximately 440 mg |  |  | 
2 | PADRE:I9V + Oligo 3 |  |  |  | 70-80% pure | ≥70-80% pure | 
3 | Mal-PADRE:I9V |  | greater than or equal to 85% pure | Approximately 440 mg |  |  | about 40% pure
4 | KSSAKXVAAWTLKAAASLYNTVATL | about 40% Purity | ≥85% | Approximately 400 mg |  |  | 
5 | PADRE-I9V + Oligo 2 |  |  |  | 70-80% pure |  | 
6 | PADRE:I9V:K:S9L + Oligo 3 |  |  |  | about 70-80% pure |  | 

— US10596254B2 (priority 2003, dated 2020)
